In PMC12670160, “A drug-repurposing screen of FDA- and EMA-approved drugs identifies two NF-κB inhibitors active against eumycetoma” (Journal of Antimicrobial Chemotherapy, 2025):
Counter-ions that a name gives are not always drawn. About 130 (2.5%) of roughly 5,300 compounds showed an effect of 50% or more. The list shows a part of the results.

system: M. mycetomatis strain mm55; details: primary screen, metabolic activity vs growth control; 96 h, 2 µM; inhibitor

Compound	% viability
C[C@@H]1CCCN1CCc1cc2cc(-c3ccc(C#N)cc3)ccc2o1 [ONC0003444, abt 239 tartrate]	49.56%
OC[C@H]1NCC[C@@H](O)[C@@H]1O [ONC0001187, fagomine]	79.21%
CCOc1ccccc1OCCN[C@H](C)Cc1ccc(OC)c(S(N)(=O)=O)c1 [ONC0005618, tamsulosinhcl]	58.79%
CN(C)/N=N/c1ccc(C(=O)O)cc1 [ONC0003759, cb10277]	106.9%
CCCCCCCCCCCCC[N+](C)(C)Cc1ccccc1 [ONC0002405, benzalkonium chloride hydrate]	106.8%
CCCS(=O)(=O)Nc1ccc(F)c(C(=O)c2c[nH]c3ncc(-c4ccc(Cl)cc4)cc23)c1F [ONC0002270, vemurafenib]	101.3%
CC(=O)[C@H]1CC[C@H]2[C@@H]3C[C@H](C)C4=CC(=O)CC[C@]4(C)[C@H]3[C@@H](O)C[C@]12C [ONC0000445, medrysone]	69.04%
CCOC(=O)OC(C)OC1=C(C(=O)Nc2ccccn2)N(C)S(=O)(=O)c2ccccc21 (stereo not shown) [ONC0001016, ampiroxicam]	79.42%
O=C(Nc1c(Cl)cncc1Cl)c1ccc(OC(F)F)c(OCC2CC2)c1 [ONC0004773, roflumilast daxas]	94%
Cc1cccc(-c2[nH]c(CNc3ccccc3F)nc2-c2ccc3ncnn3c2)n1 [ONC0005154]	115.6%
Cc1ccccc1/N=N/c1ccc(NC(=O)c2ccnn2C)c(C)c1 [ONC0000197, ch223191]	60.65%
C[C@@H]1CC(=O)c2c(ccc3c2C(=O)c2cccc(O)c2C3=O)C1 [ONC0003376, ochromycinone]	63.31%
O=C(O)c1cc(-c2ccc(F)cc2F)ccc1O [ONC0000442, diflunisal]	77.61%
CCCCNC(=O)NS(=O)(=O)c1ccc(C)cc1 [ONC0000556, tolbutamide]	97.76%
COc1cc(C=O)c([N+](=O)[O-])cc1OC [ONC0004335, dmnb]	105.9%
COC(=O)[C@@H]1[C@H]2C[C@H]3c4[nH]c5ccccc5c4CCN3C[C@@H]2CC[C@@H]1O [ONC0003380, yohimbine hydrochloride]	81.44%
CCOc1cc(/C=C2/C(=O)N(c3ccccc3)N=C2C)cc(Cl)c1OCC(=O)OC [ONC0001388, sj172550]	101.6%
CCCCC(CC)CNC(=N)NC(=N)NCCCCCCNC(=N)NC(=N)NCC(CC)CCCC (stereo not shown) [Alexidine dihydrochloride]	2.643%
CC(C)(c1ccc(O)cc1)c1ccc(O)cc1 [ONC0002174, bisphenola]	73.02%
CC1(C)NC(=O)N(c2ccc([N+](=O)[O-])c(C(F)(F)F)c2)C1=O [ONC0002400, nilutamide]	83.69%
N[C@@H](CC(=O)Nc1ccc(Oc2cc(F)c(F)cc2Br)cc1)C(=O)O [ONC0003568, way213613]	97.57%

Fetched by compound from above, three records:
Compound	% viability
CC(=O)[C@H]1CC[C@H]2[C@@H]3C[C@H](C)C4=CC(=O)CC[C@]4(C)[C@H]3[C@@H](O)C[C@]12C [ONC0000445, medrysone]	69.04%
COc1cc(C=O)c([N+](=O)[O-])cc1OC [ONC0004335, dmnb]	105.9%
N[C@@H](CC(=O)Nc1ccc(Oc2cc(F)c(F)cc2Br)cc1)C(=O)O [ONC0003568, way213613]	97.57%

Some of these compounds in order of heavy-atom count, low to high.
Compound	% viability
CC(C)(c1ccc(O)cc1)c1ccc(O)cc1 [ONC0002174, bisphenola]	73.02%
O=C(O)c1cc(-c2ccc(F)cc2F)ccc1O [ONC0000442, diflunisal]	77.61%
CCOc1ccccc1OCCN[C@H](C)Cc1ccc(OC)c(S(N)(=O)=O)c1 [ONC0005618, tamsulosinhcl]	58.79%

Next structures.

Compound	% viability
CCCCCCc1ccc(O)cc1O [ONC0000355, hexylresorcinol]	72.69%
Cc1[nH]c(/C=C2\C(=O)Nc3ccc(S(=O)(=O)N(C)c4cccc(Cl)c4)cc32)c(C)c1C(=O)N1CCN(C)CC1 [ONC0004586, su11274]	73.21%
O=C(/C=C\n1cnc(-c2cc(C(F)(F)F)cc(C(F)(F)F)c2)n1)NNc1cnccn1 [ONC0005120, selinexor kpt330]	72.15%
CN(C)Cc1ccc(-c2nc3cccc4c3n2CCNC4=O)cc1 [ONC0005276, ag14361]	155.3%
CNc1ccc([N+](=O)[O-])cc1-n1cnc(-c2ccc(C(F)(F)F)cc2)c1 [ONC0003084, cut129]	98.15%
Cc1cc(C)c(NC(=O)C2CC3CCC2C3)c(C)c1 (stereo not shown) [ONC0003035, ml213]	82.53%
O=C(CCCCCCCn1cc(-c2cccnc2)nn1)Nc1ccccc1-c1ccccc1 [ONC0000151, gpp78]	116.8%
CCCCc1nc(C)c(CC(=S)N(C)C)c(=O)n1Cc1ccc(-c2ccccc2-c2nnn[nH]2)cc1 [ONC0001851, fimasartan]	108.7%
COc1ccc(C(=O)C2CCN(CC(=O)N(Cc3nc4c(c(=O)[nH]3)COCC4)CC3CC3)CC2)cc1 [ONC0001799, nvptnks656]	96.54%
Cc1nc(NC(=O)N2CCC[C@H]2C(N)=O)sc1-c1ccnc(C(C)(C)C(F)(F)F)c1 [ONC0005036, alpelisib byl719]	108.4%
COC(=O)[C@H](Cc1cccc(C(=N)N)c1)[C@@H](C)NC(=O)c1ccc(-c2cc[n+]([O-])cc2)cc1 [ONC0001904, otamixaban]	84.17%
CC(C)NCC(O)COc1cccc2ccccc12 (stereo not shown) [ONC0003974, propranolol hydrochloride]	61.44%
Nc1n[nH]c2nc3ccccc3nc12 [ONC0002479, cdk15inhibitor]	71.95%
CC1=NN=C(c2ccc(N)cc2)c2cc3c(cc2C1)OCO3 [ONC0002253, gyki52466]	67.12%
Cc1c[nH]c(=O)n(CCCN2CCN(c3ccccc3OCC(F)(F)F)CC2)c1=O [ONC0001759, rs100329]	99.58%
Nc1ncnc2c1c(-c1cnc3[nH]ccc3c1)nn2C1CCCC1 [ONC0001430, pp121]	51.72%
COc1ccc2cc1Oc1ccc(cc1)C[C@H]1c3cc(c(OC)cc3CCN1C)Oc1c(OC)c(OC)cc3c1[C@H](C2)N(C)CC3 [ONC0004353, tetrandrine fanchinine]	115.8%
CCOCCOc1ccccc1C(N)=O [ONC0002384, etosalamide]	72.48%
Cc1ccc2c(c1)c1c(n2CCc2ccc(C)nc2)CCN(C)C1.Cl.Cl [ONC0000365, latrepirdine dimebon dihydrochloride]	70.26%
Sc1nc2ccccc2s1 [ONC0003675, benzodthiazole23hthione]	62.63%
CN1C(=O)C(F)=C[C@]2(C)[C@H]3CC[C@]4(C)[C@@H](C(=O)NCc5nc6cccnc6[nH]5)CC[C@H]4[C@@H]3CC[C@@H]12 [ONC0001125, mk0773]	62.11%

Compound	% viability
C/N=c1/nc(-c2ccccc2)n(-c2ccccc2)s1 [ONC0002549, sch202676]	72.78%
Nc1c(-c2cccc(C(F)(F)F)c2)nsc1C(=O)O [ONC0003699, amflutizole]	83.7%
C[C@@]12C[C@@]3(O)O[C@@H](O1)[C@]1(COC(=O)c4ccccc4)[C@H]3C[C@@]12O[C@@H]1O[C@H](CO)[C@@H](O)[C@H](O)[C@H]1O [ONC0004980, paeoniflorin]	83.59%
O=C(O)c1ccccc1-c1ccc(C(F)(F)F)cc1 [ONC0003712, xenalipin]	103.4%
O=C1CN(/N=C/c2ccc(-c3ccc([N+](=O)[O-])cc3)o2)C(O)=N1 [ONC0003073, dantrolene]	104.9%
Nc1ncnc2c1ncn2CCOCP(=O)(O)O [ONC0003286, adefovir]	54.24%
COc1cc(Nc2nc3ccccc3nc2NS(=O)(=O)c2ccc(NC(=O)c3ccc(C)c(OC)c3)cc2)cc(OC)c1 [ONC0004638, xl765]	95.99%
Cc1ccccc1-n1c(Cn2nc(-c3cccc(O)c3)c3c(N)ncnc32)nc2cccc(C)c2c1=O [ONC0005221, pik294]	112.5%
CO[C@@H]1[C@@H](OC2O[C@H](C)[C@@H](O[C@H]3C[C@@](C)(O)[C@@H](O)[C@H](C)O3)[C@H](N(C)C)[C@H]2O)[C@@H](CC=O)C[C@@H](C)[C@@H](O[C@H]2CC[C@H](N(C)C)[C@@H](C)O2)/C=C/C=C/C[C@@H](C)OC(=O)C[C@H]1O (stereo partly shown) [ONC0002448, spiramycin]	104.6%
CCC1=C(C)CN(C(=O)NCCc2ccc(S(=O)(=O)NC(=O)N[C@H]3CC[C@H](C)CC3)cc2)C1=O [ONC0003944, glimepiride]	79.11%
CCC(C)SSc1ncc[nH]1 (stereo not shown) [ONC0001121, px12]	79.55%
O=C(O)[C@H]1C[C@@H](CP(=O)(O)O)CCN1 [ONC0005491, cgs 19755]	127.7%
Cc1coc2c1C(=O)C(=O)c1c-2ccc2c(C)cccc12 [ONC0005263, tanshinone i]	142.7%
Oc1ccc(-c2nc3cc(O)cc(Br)c3o2)cc1 [ONC0001495, way200070]	68.78%
C1=Cc2cccc(OCC3CNCCO3)c2C1 (stereo not shown) [ONC0002142, indeloxazine]	65.99%
O=P(O)(O)C(Cl)(Cl)P(=O)(O)O [ONC0004812, clodronate disodium]	89.04%
CCCCOc1cc(C(=O)NCCN(CC)CC)c2ccccc2n1 [ONC0000553, dibucaine]	90.83%
CC[C@H]1OC(=O)[C@H](C)C(=O)[C@H](C)[C@@H](O[C@@H]2O[C@H](C)C[C@H](N(C)C)[C@H]2O)[C@](C)(OC)C[C@@H](C)C(=O)[C@H](C)[C@H]2N(CCCCn3cnc(-c4cccnc4)c3)C(=O)O[C@]12C [ONC0003877, telithromycin]	98.81%
N#C[C@@H]1C[C@@H]2C[C@@H]2N1C(=O)[C@@H](N)C12CC3CC(CC(O)(C3)C1)C2 [ONC0004839, saxagliptin bms477118onglyza]	92.67%
